Results are given in words; binding and its absence hold for the method and conditions named. Where a sequence is shown, tags or fusion partners need not be part of it.
Target: lysozyme
Assay: ELISA, 200 nM Trx-miniprotein on coated protein (1 µg/well), duplicates

B1: Trx-MC-FN-010 (thioredoxin fusion of cystine-knot miniprotein MC-FN-010) (designed binder, not shown: large carriers; small tags and cut ends)
chain: PMCTQRKNRIRLCRRDSDCTGACICRGNGYCG
binding: no binding (tested: 200 nM)

From patent US20210246191A1 (BIONTECH, published 2021)
